Test results: patent publication US20080108681A1 (Access Business Group International LLC, priority 2006, published 2008)

How the values were obtained:
[1] = test system: Hyaluronic acid synthesis; conditions: allantoin at 100 μg/ml
[2] = stated as known; cited from earlier work

## NC(=O)NC1NC(=O)NC1=O (centres unmarked) [Allantoin, 2,5-dioxy-4-imidazolidinyl urea]
[1]
  Hyaluronic acid synthesis, Percent Increase vs. Untreated Control: 79.7%
[2]
  absorption through the skin: easily absorbed through the skin
